{"source": "paper PMC7329908", "target": "C. elegans Hsp90 (HSP-90) (C. elegans) (UniProt Q18688)", "assay": "AUC; sedimentation velocity with fluorescence detection; 600 nM ATTO 488-labelled GRLBDm, 3 μM unlabelled chaperones and cofactors, no nucleotide; 20 mM HEPES, 20 mM KCl, 5 mM MgCl2, 50 μM dexamethasone, pH 7.5; 42,000 rpm, 20 °C; both purified", "note": "No constants are given. Whether binding was seen depends on the method and setting. A result given as binding can be weak or reduced; the word gives no strength.", "data": [{"substance": "AHSA-1, nematode ATPase activator of HSP-90 (from UniProt Q93168)", "values": [{"measurement": "binding", "value": "binds"}]}]}
